These results are taken from paper PMC8184754.

Amino acid sequences for entries named in this document (tags omitted).
UniProt Q8BWG8: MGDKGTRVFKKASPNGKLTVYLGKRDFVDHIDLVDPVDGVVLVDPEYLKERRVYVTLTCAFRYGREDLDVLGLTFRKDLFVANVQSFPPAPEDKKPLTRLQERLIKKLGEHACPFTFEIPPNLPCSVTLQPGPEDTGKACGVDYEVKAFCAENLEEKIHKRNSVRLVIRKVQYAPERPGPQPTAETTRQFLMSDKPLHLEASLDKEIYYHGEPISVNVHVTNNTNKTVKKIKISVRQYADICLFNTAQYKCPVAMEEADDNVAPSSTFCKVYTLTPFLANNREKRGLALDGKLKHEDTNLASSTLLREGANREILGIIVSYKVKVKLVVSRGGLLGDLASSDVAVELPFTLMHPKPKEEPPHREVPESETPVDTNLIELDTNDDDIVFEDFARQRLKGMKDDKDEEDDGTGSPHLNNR
UniProt Q91YI4: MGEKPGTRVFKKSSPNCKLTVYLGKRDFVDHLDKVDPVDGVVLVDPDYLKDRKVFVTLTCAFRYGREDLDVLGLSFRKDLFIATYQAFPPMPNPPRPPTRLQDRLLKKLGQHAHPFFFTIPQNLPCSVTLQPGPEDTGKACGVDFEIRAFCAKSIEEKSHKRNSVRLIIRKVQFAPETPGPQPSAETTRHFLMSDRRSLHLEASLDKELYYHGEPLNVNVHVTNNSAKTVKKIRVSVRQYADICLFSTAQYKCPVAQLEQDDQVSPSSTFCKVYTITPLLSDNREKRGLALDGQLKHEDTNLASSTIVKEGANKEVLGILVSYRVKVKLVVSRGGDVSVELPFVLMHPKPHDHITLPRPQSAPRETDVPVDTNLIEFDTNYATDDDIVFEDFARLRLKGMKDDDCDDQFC
UniProt Q04207: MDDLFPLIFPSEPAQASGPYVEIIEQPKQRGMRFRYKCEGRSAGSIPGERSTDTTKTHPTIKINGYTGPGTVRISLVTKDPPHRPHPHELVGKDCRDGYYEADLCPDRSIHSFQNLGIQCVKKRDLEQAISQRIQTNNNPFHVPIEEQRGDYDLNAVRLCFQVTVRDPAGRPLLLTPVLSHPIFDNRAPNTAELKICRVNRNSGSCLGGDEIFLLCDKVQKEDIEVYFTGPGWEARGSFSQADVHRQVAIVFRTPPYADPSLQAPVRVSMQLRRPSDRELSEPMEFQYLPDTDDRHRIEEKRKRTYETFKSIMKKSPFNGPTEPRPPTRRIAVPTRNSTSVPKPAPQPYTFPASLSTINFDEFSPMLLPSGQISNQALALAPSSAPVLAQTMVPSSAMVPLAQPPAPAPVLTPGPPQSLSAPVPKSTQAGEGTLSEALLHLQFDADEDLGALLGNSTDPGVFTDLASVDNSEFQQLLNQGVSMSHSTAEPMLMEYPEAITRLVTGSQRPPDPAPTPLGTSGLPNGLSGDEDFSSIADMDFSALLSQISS

These are yes or no findings as the source states them, for the method shown. In cells and extracts the contact can be indirect. Some entries that bind do so weakly or less than the wild type.

The target in assay [1] is β-arrestin 1 (mouse (endogenous in BMDMs)) (UniProt Q8BWG8). Briefly: condition: only BMDMs without LPS plus IFN-γ stimulation; co-IP; lysates (RIPA buffer) of mouse BMDMs without LPS plus IFN-γ stimulation; immunoprecipitated with antibodies against ARRB1 or ARRB2, protein A/G beads, immunoblotting. (In general: A western blot detects proteins with antibodies after separation by electrophoresis.)

In assay [2] the target is β-arrestin 2 (mouse (endogenous in BMDMs)) (UniProt Q91YI4). The description is as above.
Assay [3] addresses β-arrestin 1 (mouse (endogenous in BMDMs)) (UniProt Q8BWG8). Briefly: co-IP; lysates (RIPA buffer) of mouse BMDMs stimulated with LPS plus IFN-γ for 1 h; immunoprecipitated with 2 μg of antibodies against ARRB1 or ARRB2 at 4 °C overnight, protein A/G beads, immunoblotting; also BMDMs of ARRB1 or ARRB2 knockout mice.
In assay [4] the target is β-arrestin 2 (mouse (endogenous in BMDMs)) (UniProt Q91YI4). The assay is described as above.

As for p65 (from UniProt Q04207 1-549), the binding entry is “no binding” in assay [1], “no binding” in assay [2], “binds” in assay [3] and “binds” in assay [4].
